No constants are given. Whether binding was seen depends on the method and setting. In cells and extracts the contact can be indirect. Some results given as binding are weak or reduced against the parent protein; the word gives no strength.
Columns and labels:
[1] = biological target: lamin A (human (endogenous in MNNG/HOS, MG63, U2OS)) (UniProt P02545); test: co-IP; endogenous proteins in whole-cell lysates (3000 μg protein) of MNNG/HOS, MG63 and U2OS cells; anti-CNOT1 or anti-LMNA antibody at 4 °C overnight, protein A/G magnetic beads 4 °C 3 h, washed with PBS containing 1‰ Triton X-100; immunoblot; IgG as negative control
[2] = biological target: CCR4–NOT transcription complex subunit 1 (human (endogenous in MNNG/HOS, MG63, U2OS)) (UniProt A5YKK6); test: as above

Chains of the proteins cited; added tags and fusions are not shown. Residues count along the entry.
UniProt P02545, residues 1-646: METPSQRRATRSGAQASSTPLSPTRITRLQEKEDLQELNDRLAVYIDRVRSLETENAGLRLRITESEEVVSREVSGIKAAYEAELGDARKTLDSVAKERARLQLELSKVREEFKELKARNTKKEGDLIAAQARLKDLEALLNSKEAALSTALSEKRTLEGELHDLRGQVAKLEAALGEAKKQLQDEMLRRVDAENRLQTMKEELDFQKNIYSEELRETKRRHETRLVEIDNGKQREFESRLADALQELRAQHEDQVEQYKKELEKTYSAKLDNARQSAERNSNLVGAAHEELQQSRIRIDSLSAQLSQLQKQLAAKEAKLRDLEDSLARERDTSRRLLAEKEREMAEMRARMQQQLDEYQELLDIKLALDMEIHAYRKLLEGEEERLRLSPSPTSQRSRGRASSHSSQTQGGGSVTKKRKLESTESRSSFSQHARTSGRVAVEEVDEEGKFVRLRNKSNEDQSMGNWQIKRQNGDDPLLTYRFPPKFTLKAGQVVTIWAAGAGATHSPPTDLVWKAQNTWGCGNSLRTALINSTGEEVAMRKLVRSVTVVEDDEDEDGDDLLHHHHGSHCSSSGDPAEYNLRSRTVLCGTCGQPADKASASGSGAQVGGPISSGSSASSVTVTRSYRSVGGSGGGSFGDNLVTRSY
UniProt A5YKK6: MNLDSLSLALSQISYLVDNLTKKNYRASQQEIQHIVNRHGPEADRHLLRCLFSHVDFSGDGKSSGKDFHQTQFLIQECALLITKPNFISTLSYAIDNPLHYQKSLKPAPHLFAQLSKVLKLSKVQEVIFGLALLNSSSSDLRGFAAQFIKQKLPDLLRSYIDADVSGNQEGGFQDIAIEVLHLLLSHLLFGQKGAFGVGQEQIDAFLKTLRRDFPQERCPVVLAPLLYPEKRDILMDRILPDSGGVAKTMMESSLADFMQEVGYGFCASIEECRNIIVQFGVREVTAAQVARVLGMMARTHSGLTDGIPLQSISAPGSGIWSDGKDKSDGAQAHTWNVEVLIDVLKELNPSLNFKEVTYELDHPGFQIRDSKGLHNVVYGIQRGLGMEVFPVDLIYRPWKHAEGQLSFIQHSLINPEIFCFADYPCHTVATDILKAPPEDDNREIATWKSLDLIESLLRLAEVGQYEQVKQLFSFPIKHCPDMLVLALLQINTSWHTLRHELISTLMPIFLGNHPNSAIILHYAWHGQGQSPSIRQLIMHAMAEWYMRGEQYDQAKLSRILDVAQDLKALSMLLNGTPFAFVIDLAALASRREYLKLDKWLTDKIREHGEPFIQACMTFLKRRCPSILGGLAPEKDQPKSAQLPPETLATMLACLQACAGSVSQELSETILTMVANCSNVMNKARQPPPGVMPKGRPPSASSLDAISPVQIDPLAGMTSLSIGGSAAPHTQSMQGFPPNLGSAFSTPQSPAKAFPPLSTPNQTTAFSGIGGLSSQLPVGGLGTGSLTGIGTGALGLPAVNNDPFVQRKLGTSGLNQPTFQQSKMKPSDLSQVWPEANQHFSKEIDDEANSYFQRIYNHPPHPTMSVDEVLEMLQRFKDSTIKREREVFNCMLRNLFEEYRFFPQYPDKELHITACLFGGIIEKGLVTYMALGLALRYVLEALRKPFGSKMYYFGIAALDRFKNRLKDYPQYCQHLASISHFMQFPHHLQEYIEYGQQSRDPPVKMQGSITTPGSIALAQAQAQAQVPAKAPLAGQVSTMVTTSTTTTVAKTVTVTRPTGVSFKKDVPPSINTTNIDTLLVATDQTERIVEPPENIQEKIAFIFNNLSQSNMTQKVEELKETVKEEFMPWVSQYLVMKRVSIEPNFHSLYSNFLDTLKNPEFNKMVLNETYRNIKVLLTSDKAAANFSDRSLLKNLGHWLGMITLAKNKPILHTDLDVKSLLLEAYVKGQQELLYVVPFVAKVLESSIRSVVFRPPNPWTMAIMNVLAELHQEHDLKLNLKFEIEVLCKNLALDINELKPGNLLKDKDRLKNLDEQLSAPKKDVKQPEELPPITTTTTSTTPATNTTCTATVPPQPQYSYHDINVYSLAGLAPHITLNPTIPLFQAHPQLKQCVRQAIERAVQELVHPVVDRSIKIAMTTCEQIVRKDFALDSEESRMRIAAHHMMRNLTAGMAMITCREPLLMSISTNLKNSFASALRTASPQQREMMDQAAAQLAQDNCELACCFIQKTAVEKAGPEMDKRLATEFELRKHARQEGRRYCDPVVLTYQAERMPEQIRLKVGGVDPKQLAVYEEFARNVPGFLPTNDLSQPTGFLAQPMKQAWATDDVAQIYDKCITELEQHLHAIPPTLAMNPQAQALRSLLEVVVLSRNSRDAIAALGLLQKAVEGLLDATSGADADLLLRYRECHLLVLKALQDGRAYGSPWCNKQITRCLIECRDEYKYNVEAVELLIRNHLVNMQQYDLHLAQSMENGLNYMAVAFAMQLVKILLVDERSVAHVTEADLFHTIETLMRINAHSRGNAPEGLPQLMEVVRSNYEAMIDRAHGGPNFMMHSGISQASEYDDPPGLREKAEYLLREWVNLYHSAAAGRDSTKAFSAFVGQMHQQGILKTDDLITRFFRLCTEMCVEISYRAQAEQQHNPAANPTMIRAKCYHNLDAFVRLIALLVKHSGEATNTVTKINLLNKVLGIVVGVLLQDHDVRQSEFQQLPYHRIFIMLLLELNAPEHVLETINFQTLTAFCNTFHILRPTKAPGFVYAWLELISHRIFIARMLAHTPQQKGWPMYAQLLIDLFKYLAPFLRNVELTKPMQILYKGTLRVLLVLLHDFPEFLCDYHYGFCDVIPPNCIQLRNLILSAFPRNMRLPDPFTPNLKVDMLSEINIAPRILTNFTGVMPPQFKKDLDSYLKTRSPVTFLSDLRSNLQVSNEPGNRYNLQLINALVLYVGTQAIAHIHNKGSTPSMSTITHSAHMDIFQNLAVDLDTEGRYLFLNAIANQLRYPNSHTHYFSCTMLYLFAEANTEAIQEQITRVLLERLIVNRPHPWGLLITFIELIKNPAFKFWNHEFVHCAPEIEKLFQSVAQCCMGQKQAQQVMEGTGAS

Substance | binding [1] | binding [2]
CCR4–NOT transcription complex subunit 1 (from UniProt A5YKK6 1-2376) | binds | –
lamin A (from UniProt P02545 1-646) | – | binds

— PMC5527480
